Measurements as given in PubChem BioAssay AID540276 (National Center for Advancing Translational Sciences (NCATS), 2011).
The whole screen tested about 300,000 compounds, of which about 5,400 (1.8%) were called active. The inconclusive results got no clear call from the source; some entries with a clear call stand among them for comparison. The call rests on the fitted dose curve; tested in HEK293 cells. Where the call is inconclusive, the potency comes from a doubtful curve fit.

Experiment: qHTS for inhibitors of binding or entry into cells for Marburg Virus
Conditions: Marburg virus pseudotyped entry inhibition, cell reporter; series mostly up to 37.8 µM
Potency means the concentration at half of the fitted maximal effect.

Row | SMILES | Potency
1 | CN(C)/C=N/c1sc2c(c1C#N)CCCC2 | inconclusive: 11.2 µM [activator, partial curve, poor fit]
2 | O=C(C1CCCCN1S(=O)(=O)c1ccccc1[N+](=O)[O-])N1CCOCC1 (stereo not given) | inconclusive: 6.31 µM [inhibitor, single point]
3 | CCC(=O)NCCc1nc2cc(NC(=O)c3cccs3)ccc2n1C | inconclusive: 7.94 µM [activator, partial curve, poor fit]
4 | Cc1cccn2cc(CCNS(=O)(=O)c3cccs3)nc12 | inconclusive: 7.08 µM [activator, partial curve, poor fit]
5 | C=C(C(=O)c1ccccc1)C(C)CC(=O)c1ccccc1 (stereo not given) | inconclusive: 22.4 µM [inhibitor, single point]
6 | Cc1cccc(NC(=O)CSc2cccc3cccnc23)c1C | inactive
7 | Cc1ccc(Nc2c(-c3ccco3)nc3nc(C)cc(C)n23)cc1 | inconclusive: 35.5 µM [inhibitor, single point]
8 | Cc1cc(F)ccc1S(=O)(=O)N1CCCOC1CNC(=O)C(=O)NCc1cccnc1 (stereo not given) | inactive
9 | O=C(NCCc1ccc(Cl)cc1)C1CCC(=O)N1Cc1ccccc1Cl (stereo not given) | inactive
10 | COCCN(C(=O)Cc1cccs1)C(C(=O)NC1CCCC1)c1cc(OC)c(OC)c(OC)c1 (stereo not given) | inactive
11 | COc1ccc(-c2nc3n(n2)C(c2cccnc2)C(C(N)=O)=C(C)N3)cc1 (stereo not given) | inactive
12 | CCN(CC(=O)Nc1ccccc1OC)C(=O)c1cc(-c2ccccc2)nn1-c1ccccc1 | inconclusive: 35.5 µM [inhibitor, single point]
13 | C=CCn1c(SCC(=O)Nc2nccs2)nnc1-c1cc2cccc(OC)c2o1 | inconclusive: 2.91 µM [inhibitor, partial curve]
14 | COC(=O)Cn1c(=NC(=O)c2ccc(OC)cc2)sc2cc(OC)ccc21 | inconclusive: 0.631 µM [activator, full curve, poor fit]
15 | O=C(Cn1nc(-c2ccccc2)c2ccccc2c1=O)Nc1cccc(O)c1 | inconclusive: 7.94 µM [inhibitor, partial curve, poor fit]
16 | CC1CCN(C2(O)C(=O)Nc3ccc(Cl)cc32)CC1 (stereo not given) | inactive
17 | Cc1nc2ccccc2nc(C)c1=NOCc1ccccc1Cl | inconclusive: 2.82 µM [activator, single point]
18 | COc1cc2[nH]c(=O)n(CCCCCC(=O)N3CCN(c4cccc(C(F)(F)F)c4)CC3)c(=O)c2cc1OC | inconclusive: 15.8 µM [inhibitor, single point]
19 | CN(C)C(CNc1ncnc2sccc12)c1ccccc1 (stereo not given) | inconclusive: 35.5 µM [inhibitor, single point]
20 | CN1CCN(CC(=O)Nc2ccc(S(=O)(=O)N(C)C)cc2)CC1 | inactive
21 | Cc1ccc(-c2n[nH]c(=S)n2/N=C/c2ccc(C)s2)cc1 | inactive
23 | NC(=O)N/N=C/c1cn(-c2ccccc2)nc1-c1ccccc1 | inactive

2 of these compounds in a different format.
Cc1cccc(NC(=O)CSc2cccc3cccnc23)c1C
  Potency: inactive
Cc1ccc(Nc2c(-c3ccco3)nc3nc(C)cc(C)n23)cc1
  Potency: inconclusive: 35.5 µM [inhibitor, single point]

Additional results.

Row | SMILES | Potency
24 | COc1ccc([N+](=O)[O-])cc1COc1cc(C)cc2oc(=O)cc(-c3ccccc3)c12 | inconclusive: 14.1 µM [inhibitor, partial curve, poor fit]
25 | CCOC(=O)COc1ccc(S(=O)(=O)NCc2ccco2)cc1 | inconclusive: 20.6 µM [activator, single point]
26 | O=C(Nc1ccc(N2CCCC2)cc1)c1ccccc1F | inconclusive: 9.2 µM [inhibitor, partial curve, poor fit]
27 | CC(C)Cc1nnc(NC(=O)CCC(=O)NC2CCCc3ccccc32)s1 (stereo not given) | inconclusive: 0.0891 µM [activator, full curve, poor fit]
28 | Cc1cc(C)cc(N(C(=O)c2csnn2)C(C(=O)NC2CCCC2)c2ccccn2)c1 (stereo not given) | inconclusive: 3.16 µM [inhibitor, single point]
29 | Cc1ccccc1N1C(=O)C(Oc2ccc(Cl)cc2)C1CNC(C)(C)C (stereo not given) | inconclusive: 35.5 µM [inhibitor, single point]
30 | COc1ccc(NC(=O)CSc2nc3c(c(=O)n2-c2ccccc2)SCC3)c(OC)c1 | inconclusive: 10 µM [inhibitor, partial curve, poor fit]
31 | Cc1cc(C)cc(-n2c(C)cc(/C=N/NC(=O)CSc3ncccn3)c2C)c1 | inconclusive: 5.17 µM [inhibitor, full curve, poor fit]
32 | CCOc1ccc(C(=O)Nc2c(C(=O)Nc3ccccc3F)oc3ccccc23)cc1OCC | inactive
33 | Cc1cccc(-n2nnc(C(=O)NCc3ccc4c(c3)OCO4)c2N)c1 | inactive
34 | CC1CC(C)CN(C(=O)c2ccc3ncsc3c2)C1 (stereo not given) | inactive
35 | CCc1ccc(NC(=S)N2CCN(C)CC2)cc1 | inactive
36 | CC(C)(C)NC(=O)CCN(/N=C/c1ccccc1)C1=NS(=O)(=O)c2ccccc21 | inconclusive: 10 µM [inhibitor, partial curve]
37 | CC(C)c1ccc(NC(=O)COc2ccc(C3SCCS3)cc2)cc1 | inconclusive: 0.0891 µM [inhibitor, full curve, poor fit]
38 | CCOc1ccc(C(=O)c2nc3c(n2O)CCCCC3)cc1 | inactive
39 | O=c1c2ccccc2nc(-c2ccoc2)n1CCc1ccccc1 | inconclusive: 35.5 µM [inhibitor, single point]
40 | CC(=O)N1CCN(C(=O)c2ccc(Cl)c(NC(=O)c3cccs3)c2)CC1 | inactive
41 | CCOC(=O)C1=C(C)NC2=C(C(=O)CCC2)C1c1cn(Cc2ccc(Cl)cc2Cl)nc1-c1ccccc1 (stereo not given) | inconclusive: 3.16 µM [inhibitor, full curve, poor fit]
42 | Cc1cccc(C)c1OCC(=O)Nc1nc(-c2ccc(Br)cc2)ns1 | inactive
43 | CC1C(=O)CC(c2ccc([N+](=O)[O-])cc2)NC1c1ccc([N+](=O)[O-])cc1 (stereo not given) | inconclusive: 11.2 µM [inhibitor, partial curve, poor fit]
44 | Cc1ccc(-c2cc(C(F)(F)F)n3nc(C(=O)Nc4ccc(Cl)c(C(F)(F)F)c4)cc3n2)cc1 | inactive
45 | Cc1ccc(NC(=O)COc2ccccc2[N+](=O)[O-])nc1 | inconclusive: 11.2 µM [inhibitor, single point]
